This passage reports binding results from patent publication US20110098218A1 (AGENCY FOR SCIENCE TECHNOLOGY AND RESEARCH, published 2011).

Chains of the proteins cited; added tags and fusions are not shown. Lines headed by an entry give the natural chain unless they say otherwise; changes in a name come on top. A line that says so, or that is headed by a name, gives the form on record, which may keep a tag or linker. Residues count along the entry.
UniProt P42227: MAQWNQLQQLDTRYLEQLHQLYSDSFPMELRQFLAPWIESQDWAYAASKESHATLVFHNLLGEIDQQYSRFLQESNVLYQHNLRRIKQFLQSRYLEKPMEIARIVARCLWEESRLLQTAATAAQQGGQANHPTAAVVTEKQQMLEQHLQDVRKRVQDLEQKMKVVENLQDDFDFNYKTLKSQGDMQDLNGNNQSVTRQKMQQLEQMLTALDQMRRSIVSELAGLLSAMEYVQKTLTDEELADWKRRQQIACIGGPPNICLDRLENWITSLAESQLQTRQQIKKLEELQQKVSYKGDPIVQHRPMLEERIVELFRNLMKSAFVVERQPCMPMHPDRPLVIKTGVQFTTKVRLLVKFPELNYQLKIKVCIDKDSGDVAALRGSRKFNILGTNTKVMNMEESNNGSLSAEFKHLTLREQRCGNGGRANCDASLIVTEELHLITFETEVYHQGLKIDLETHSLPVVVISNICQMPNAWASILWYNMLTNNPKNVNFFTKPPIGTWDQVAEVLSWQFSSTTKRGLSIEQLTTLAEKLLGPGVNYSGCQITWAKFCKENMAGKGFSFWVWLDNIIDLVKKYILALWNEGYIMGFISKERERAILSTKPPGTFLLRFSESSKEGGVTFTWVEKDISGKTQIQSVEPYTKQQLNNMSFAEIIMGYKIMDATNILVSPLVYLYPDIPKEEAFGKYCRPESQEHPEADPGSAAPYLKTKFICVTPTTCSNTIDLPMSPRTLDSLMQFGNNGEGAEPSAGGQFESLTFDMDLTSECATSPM
UniProt Q9R1E0: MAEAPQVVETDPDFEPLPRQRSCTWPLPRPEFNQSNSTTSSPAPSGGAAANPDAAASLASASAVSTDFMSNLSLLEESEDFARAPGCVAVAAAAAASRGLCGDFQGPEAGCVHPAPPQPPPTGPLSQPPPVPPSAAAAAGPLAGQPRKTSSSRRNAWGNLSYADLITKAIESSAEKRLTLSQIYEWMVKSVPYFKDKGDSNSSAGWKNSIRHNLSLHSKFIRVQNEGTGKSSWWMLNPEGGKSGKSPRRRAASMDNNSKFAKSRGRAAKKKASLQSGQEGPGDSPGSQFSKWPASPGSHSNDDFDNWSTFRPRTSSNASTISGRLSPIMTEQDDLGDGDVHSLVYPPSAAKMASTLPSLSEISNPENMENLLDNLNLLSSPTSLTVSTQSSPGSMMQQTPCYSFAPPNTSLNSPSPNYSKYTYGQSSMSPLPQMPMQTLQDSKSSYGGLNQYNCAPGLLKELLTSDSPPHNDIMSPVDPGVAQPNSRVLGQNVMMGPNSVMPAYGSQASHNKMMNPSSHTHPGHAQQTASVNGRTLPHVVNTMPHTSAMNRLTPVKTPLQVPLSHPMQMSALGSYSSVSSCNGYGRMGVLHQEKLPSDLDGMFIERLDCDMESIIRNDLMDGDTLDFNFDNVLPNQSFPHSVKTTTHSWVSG
FoxO1^(1-167)-(242-652) (Q9R1E0, form named): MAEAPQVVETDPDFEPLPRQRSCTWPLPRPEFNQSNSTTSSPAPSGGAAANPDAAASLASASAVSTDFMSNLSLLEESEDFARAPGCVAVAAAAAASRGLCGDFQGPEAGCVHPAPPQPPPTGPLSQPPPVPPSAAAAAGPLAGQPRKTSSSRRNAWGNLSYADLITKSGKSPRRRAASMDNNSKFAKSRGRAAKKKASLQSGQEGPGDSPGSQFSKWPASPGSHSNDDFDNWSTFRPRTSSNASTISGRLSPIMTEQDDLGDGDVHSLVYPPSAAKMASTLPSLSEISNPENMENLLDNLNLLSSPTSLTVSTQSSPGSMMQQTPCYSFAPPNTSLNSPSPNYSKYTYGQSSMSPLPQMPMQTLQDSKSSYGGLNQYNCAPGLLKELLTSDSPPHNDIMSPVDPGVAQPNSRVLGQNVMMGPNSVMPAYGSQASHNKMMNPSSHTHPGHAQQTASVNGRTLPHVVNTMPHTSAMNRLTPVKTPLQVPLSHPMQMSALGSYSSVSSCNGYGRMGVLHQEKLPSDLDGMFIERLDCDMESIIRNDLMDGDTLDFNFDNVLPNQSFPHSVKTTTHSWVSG
UniProt P08047, residues 2-785: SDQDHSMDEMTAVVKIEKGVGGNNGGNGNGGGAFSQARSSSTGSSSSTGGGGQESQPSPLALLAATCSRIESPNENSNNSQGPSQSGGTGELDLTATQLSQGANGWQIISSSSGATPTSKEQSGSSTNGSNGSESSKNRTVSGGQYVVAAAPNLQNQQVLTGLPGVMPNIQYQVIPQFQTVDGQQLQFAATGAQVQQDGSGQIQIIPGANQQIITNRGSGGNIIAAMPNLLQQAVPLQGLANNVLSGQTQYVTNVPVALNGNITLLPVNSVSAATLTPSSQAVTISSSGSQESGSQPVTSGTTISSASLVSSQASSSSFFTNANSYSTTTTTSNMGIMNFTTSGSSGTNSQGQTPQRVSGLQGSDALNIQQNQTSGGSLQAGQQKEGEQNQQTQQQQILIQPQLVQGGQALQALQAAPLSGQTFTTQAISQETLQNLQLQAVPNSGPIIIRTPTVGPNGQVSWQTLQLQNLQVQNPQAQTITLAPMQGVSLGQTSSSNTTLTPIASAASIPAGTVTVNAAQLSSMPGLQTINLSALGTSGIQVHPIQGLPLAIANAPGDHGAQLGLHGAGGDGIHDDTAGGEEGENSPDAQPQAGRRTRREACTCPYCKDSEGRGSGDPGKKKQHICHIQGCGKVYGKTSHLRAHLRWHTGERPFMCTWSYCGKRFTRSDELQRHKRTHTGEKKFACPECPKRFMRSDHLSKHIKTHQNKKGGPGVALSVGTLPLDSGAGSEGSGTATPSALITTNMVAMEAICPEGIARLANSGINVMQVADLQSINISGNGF

Test [1] has as its target Flag-tagged mouse STAT3 (pXJ40-Flag-mSTAT3) (mouse) (UniProt P42227). Description: coimmunoprecipitation.
The target is the same in test [2]. Description: two-way co-IP (anti-Flag and anti-Myc) from leptin-treated 293-OBRb cells.
The target is the same in test [3]. As to the kind of experiment: co-IP with Flag antibody from nuclear extracts, increasing amount of FoxO1.
The target is the same in test [4]. As to the kind of experiment: co-IP with SP1 antibody from leptin-treated 293-OBRb cells, immunoblot with phospho-STAT3 antibody.

Results are given in words; binding and its absence hold for the method and conditions named. Binding seen in cells or lysates may run through a third protein. Some results given as binding are weak or reduced against the parent protein; the word gives no strength.

Consider “FoxO1^(1-167)-(242-652) (from UniProt Q9R1E0 1-167; Q9R1E0 242-652)”, for which the binding result in test [1] is “binds”.

Turning to “Myc-tagged mouse FoxO1 (pcDNA3-Myc-mFoxO1) (from UniProt Q9R1E0 1-652)”, the binding result in test [2] and in test [3] was “binds” in each case.

Take SP1 (from UniProt P08047 2-785): the binding entry in test [4] is on record as “binds”.
